Values joined by “and” are separate entries in the source; they are usually repeats but may differ in a detail not shown here. Equal entries are not always repeated. The source gives many values for each of these; only a part stands here.
Target: T1, SBC2 (Homo sapiens, UniProt O14508)
T1 construct: SOCS2 (amino acids 32–198); His6 (N, cleaved yes); made in house; host or cells: E. coli BL21(DE3)
Test: Covalent fluorescence polarization (FP) probe displacement assay
Assay type: binding
From the text: With the specific covalent modification of Cys111 established, we decided to fully characterize MN551 as a covalent SOCS2 inhibitor. […] (Fig. 2g, h, Supplementary Fig. 9). Due to the covalent nature of the competing inhibitor, a time-dependent reduction in the fraction of protein-bound probe is observed. […] This value illustrates reasonable specificity for a covalent inhibitor, with nonetheless scope for future optimization. In addition to characterizing the kinetic covalency parameters, we have also assessed the stability of the MN551 by monitoring its reactivity (half-life >70 min) with reduced glutathione (GSH) (Supplementary Fig. 10)[35].
To monitor the SBC2-ligand binding kinetics we designed a fluorescein-labeled small-molecule probe - compound 26. The fluorescence polarization (anisotropy) of a threefold serial dilution of 50 µM SBC2 in 10 nM of the probe in 100 mM HEPES pH 7.5, 50 mM NaCl, 0.5 mM TCEP, 2% DMSO was measured to determine the KL (Supplementary Fig. 9A) (BMG Labtech PHERAstar – firmware v1.33). Protein titration and the curves were fitted using GraphPad Prism 9, using one-site fitting models to determine the probe binding constant, KL. Samples were run in triplicate in 384 well plates, using a total volume per well of 16 μL. The bound fraction of the probe is measure using the equation:1 Fb=Af−A/Af−Ab Where,
A time-dependent reduction in probe anisotropy were measured for a 2-fold serial dilution of […] compound MN551 in 10 nM probe +300 μM SBC2. To determine the initial reversible binding affinity, the initial bound fraction of the probe at time = 0, Fbo (the y-intercept in Fb v/s Time plot, Supplementary Fig. 9B) was plotted against MN551 concentration, and the obtained IC50 is then converted to Ki (Supplementary Fig. 9C)[17]. The slope from Fb versus time graph when divided by Fbo gives rate of covalency, kobs. A plot of kobs v/s MN551 concentration using Michaelis–Menten model of GraphPad Prism 9, provides the parameters kinact (maximum potential rate of inactivation) and KI (concentration of MN551 at which kobs = kinact/2) (Supplementary Fig. 9D, E).
The observed first-order rate constant, kobs is related to KI and kinact by the equation:2 kobs=kinactI/KI+I
At [I]«[KI] the above equation is converted to3 […]
The slope from the plot of kobs against concentration of MN551 gives us the covalent efficiency parameter kinact/KI (Supp Fig. 9F)[30],[33].

Sequences of proteins named here, by UniProt entry; tags and fusion partners are left off. Residues count along the entry.
UniProt O14508, 32-198: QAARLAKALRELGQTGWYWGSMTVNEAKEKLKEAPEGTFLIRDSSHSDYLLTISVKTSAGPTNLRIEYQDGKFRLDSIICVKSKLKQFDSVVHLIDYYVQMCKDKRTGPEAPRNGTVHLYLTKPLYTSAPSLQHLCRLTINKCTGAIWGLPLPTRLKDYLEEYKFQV

[1] = MN551 1000 nM, Cycle 9 (40 min)
[2] = MN551 1000 nM, Cycle 10 (45 min)
[3] = MN551 1000 nM, Cycle 11 (50 min)
[4] = MN551 1000 nM, Cycle 12 (55 min)
[5] = MN551 1000 nM, Cycle 16 (75 min), n=1
[6] = MN551 1000 nM, Cycle 17 (80 min), n=1
[7] = MN551 1000 nM, Cycle 18 (85 min), n=1
[8] = MN551 1000 nM; Cycle 7 (30 min)
[9] = MN551 1000 nM; Cycle 8 (35 min)
[10] = MN551 1000 nM; Cycle 9 (40 min)
[11] = MN551 1000 nM; Cycle 10 (45 min)
[12] = MN551 1000 nM; Cycle 11 (50 min)
[13] = MN551 1000 nM; Cycle 13 (60 min); n=1
[14] = MN551 1000 nM; Cycle 14 (65 min); n=1
[15] = MN551 1000 nM; Cycle 15 (70 min); n=1
[16] = MN551 1000 nM; Cycle 16 (75 min); n=1
[17] = MN551 1562.5 nM, Cycle 8 (35 min)
[18] = MN551 1562.5 nM, Cycle 9 (40 min)
[19] = MN551 1562.5 nM, Cycle 10 (45 min)
[20] = MN551 1562.5 nM; Cycle 7 (30 min)
[21] = MN551 1562.5 nM; Cycle 8 (35 min)
[22] = MN551 1562.5 nM; Cycle 9 (40 min)
[23] = MN551 1562.5 nM; Cycle 10 (45 min)
[24] = MN551 1562.5 nM; Cycle 11 (50 min)
[25] = MN551 1562.5 nM; Cycle 12 (55 min); n=1

In the case of `O=C(CCl)Nc1cccc(CNC(=O)[C@H](Cc2ccc(OP(=O)(O)O)cc2)NC(=O)Cc2ccc(F)cc2)c1` [MN551], the “Anisotropy based on Raw Data (485)” value [1] is reported as 248.8 and 246.8 and 245.6, the Fb [1] is reported as 0.6207 and 0.612 and 0.6002 and the “Anisotropy based on Raw Data (485)” value [2] is reported as 246.1 and 245.5 and 244.9. The Fb [2] was 0.6298 and 0.6168 and 0.6134, the “Anisotropy based on Raw Data (485)” value [3] was 244.7 and 243.4 and the Fb [3] was 0.6093 and 0.5602 and 0.5741. The “Anisotropy based on Raw Data (485)” value [4] was 242.1 and 242.8 and 240.5, the Fb [4] was 0.5902 and 0.5787 and 0.5488 and the Anisotropy (MN551 1000 nM, Cycle 14 (65 min), n=1) was 231.5 and 232.5 and 228.7. The Anisotropy (MN551 1000 nM, Cycle 15 (70 min), n=1) was 229 and 228.9 and 227, the Anisotropy [5] was 226.1 and 227.9 and 226.8 and the “Normalised anisotropy (0 nM MN551 = 1, free probe = 0)” value [5] was 0.5335 and 0.5648 and 0.5535. The Anisotropy [6] was 225 and 226.8 and 221.1, the “Anisotropy based on Raw Data (485)” value [6] was 232 and 234.1 and 230.6 and the “Normalised anisotropy (0 nM MN551 = 1, free probe = 0)” value [6] was 0.5404 and 0.5469 and 0.5176. The Anisotropy [7] was 224 and 223.3 and 222.4, the “Normalised anisotropy (0 nM MN551 = 1, free probe = 0)” value [7] was 0.5382 and 0.5316 and 0.5493 and the “Fb, fraction bound” value (MN551 1000 nM; Cycle 4 (15 min)) was 0.7519 and 0.7352 and 0.7595. For the same compound, the “Fb, fraction bound” value (MN551 1000 nM; Cycle 5 (20 min)) was 0.7373 and 0.7273 and 0.725, the “Fb, fraction bound” value (MN551 1000 nM; Cycle 6 (25 min)) was 0.7022 and 0.7159 and 0.7173 and the “Anisotropy data 485,520,520” value [8] was 244.7 and 239.5 and 240.8. For the same compound, the Fb [8] was 0.7698 and 0.7515 and 0.8229, the “Fb, fraction bound” value [8] was 0.6756 and 0.706 and 0.6924 and the Anisotropy [9] was 245.8 and 242.4. The “Anisotropy data 485,520,520” value [9] was 245.9 and 236.7 and 239.8, the Fb [9] was 0.7397 and 0.7682 and 0.7754 and 0.7024 and 0.6846 and 0.6767 and the Anisotropy [10] was 243.4 and 244.2 and 240. For the same compound, the “Anisotropy data 485,520,520” value [10] was 242 and 235.6 and 236, the Fb [10] was 0.7205 and 0.7399 and 0.7699 and 0.686 and 0.6638 and 0.6505 and the Anisotropy [11] was 241.2 and 241.3 and 239.6. The “Anisotropy data 485,520,520” value [11] was 240.4 and 234.3, the Fb [11] was 0.7197 and 0.7244 and 0.7852 and 0.667 and 0.6534 and 0.6566 and the Anisotropy [12] was 237.4 and 239 and 237.6. The “Anisotropy data 485,520,520” value [12] was 237.7 and 229.7 and 230.1, the Fb [12] was 0.6355 and 0.6418 and 0.6543 and the Fb (MN551 1000 nM; Cycle 11 (50 min); column head blank in this cycle) was 0.6962 and 0.7216 and 0.7551. The Anisotropy (MN551 1000 nM; Cycle 12 (55 min); n=1) was 236.1 and 228.9 and 227, the Anisotropy (MN551 1000 nM; Cycle 13 (60 min)) was 231.5 and 234.1 and 232.1 and the Anisotropy [13] was 234.8 and 228.6 and 229.2. For the same compound, the “Anisotropy based on Raw Data (485)” value [13] was 242.2 and 239.3 and 238.7, the Anisotropy [14] was 234.6 and 226.2 and 224.7 and the “Anisotropy based on Raw Data (485)” value [14] was 238.9 and 237.5 and 235.8. The Anisotropy [15] was 232.3 and 224.1 and 225.6, the “Anisotropy based on Raw Data (485)” value [15] was 236 and 234.8 and 234.5 and the Anisotropy [16] was 228.8 and 223.6 and 223.9. The “Anisotropy based on Raw Data (485)” value [16] was 234.4 and 230.8 and 231.7, the “Anisotropy data 485,520,520” value (MN551 1000 nM; Cycle 20 (95 min); n=1) was 220.8 and 218.3 and 217 and the Fb (MN551 1562.5 nM, Cycle 7 (30 min)) was 0.6133 and 0.7041 and 0.6631. For the same compound, the “Anisotropy based on Raw Data (485)” value [17] was 246.7 and 248.5 and 246, the Fb [17] was 0.5874 and 0.6844 and 0.667 and the “Anisotropy based on Raw Data (485)” value [18] was 246.3 and 246.5 and 240.7. The Fb [18] was 0.5839 and 0.679 and 0.6245, the “Anisotropy based on Raw Data (485)” value [19] was 241.9 and 244.9 and 238.2 and the Fb [19] was 0.5501 and 0.6614 and 0.6247. The Anisotropy (MN551 1562.5 nM, Cycle 13 (60 min), n=1) was 230.4 and 231.9 and 230.5, the Anisotropy (MN551 1562.5 nM, Cycle 14 (65 min), n=1) was 228.7 and 231.5 and 228.5 and the Anisotropy (MN551 1562.5 nM, Cycle 15 (70 min), n=1) was 225.2 and 227.3 and 225.9. The Anisotropy (MN551 1562.5 nM, Cycle 16 (75 min), n=1) was 224.8 and 225.1 and 221.1, the Anisotropy (MN551 1562.5 nM, Cycle 17 (80 min), n=1) was 222.9 and the Anisotropy (MN551 1562.5 nM, Cycle 18 (85 min), n=1) was 217.8 and 219.6 and 219.1. For the same compound, the “Fb, fraction bound” value (MN551 1562.5 nM; Cycle 4 (15 min)) was 0.7431 and 0.7546 and 0.7331, the “Fb, fraction bound” value (MN551 1562.5 nM; Cycle 5 (20 min)) was 0.7004 and 0.7516 and 0.7303 and the “Fb, fraction bound” value (MN551 1562.5 nM; Cycle 6 (25 min)) was 0.6793 and 0.7386 and 0.7023. The “Anisotropy data 485,520,520” value [20] was 246.2 and 249.3 and 251.2, the Fb [20] was 0.7126 and 0.719 and 0.7493 and the “Fb, fraction bound” value [20] was 0.6932 and 0.739 and 0.6761. For the same compound, the Anisotropy [21] was 243.2 and 244.7 and 242.9, the “Anisotropy data 485,520,520” value [21] was 242.8 and 247 and 247.2 and the Fb [21] was 0.6667 and 0.6901 and 0.7085 and 0.651 and 0.666 and 0.6554. The Anisotropy [22] was 242.6 and 242.9 and 240.5, the “Anisotropy data 485,520,520” value [22] was 240.7 and 243.8 and 245.3 and the Fb [22] was 0.662 and 0.6743 and 0.6977 and 0.6387 and 0.6597 and 0.6438. For the same compound, the Anisotropy [23] was 237.9 and 240 and 241.6, the “Anisotropy data 485,520,520” value [23] was 237.7 and 240.6 and 241.5 and the Fb [23] was 0.6441 and 0.6528 and 0.666 and 0.5983 and 0.6465 and 0.6605. The Anisotropy [24] was 235.7 and 239.2 and 235.4, the “Anisotropy based on Raw Data (485)” value [24] was 240 and 242.6 and 237.8 and the Anisotropy (MN551 1562.5 nM; Cycle 11 (50 min); n=1) was 233.7 and 239.5 and 237.9. The Anisotropy [25] was 232.6 and 237.1 and 235.3 and the “Anisotropy based on Raw Data (485)” value [25] was 237.4 and 239.9 and 235.4.

— publication PMC10564737, “Structure-based design of a phosphotyrosine-masked covalent ligand targeting the E3 ligase SOCS2” (Nature Communications, 2023)
